Measured values as given in publication PMC11213201.
No constants are given. Whether binding was seen depends on the method and setting. Binding seen in cells or lysates may run through a third protein. Here binding means that the protein was enriched with, or labelled near, the bait; the list need not be complete.

Chains of the proteins cited; added tags and fusions are not shown.
UniProt Q9BQ24: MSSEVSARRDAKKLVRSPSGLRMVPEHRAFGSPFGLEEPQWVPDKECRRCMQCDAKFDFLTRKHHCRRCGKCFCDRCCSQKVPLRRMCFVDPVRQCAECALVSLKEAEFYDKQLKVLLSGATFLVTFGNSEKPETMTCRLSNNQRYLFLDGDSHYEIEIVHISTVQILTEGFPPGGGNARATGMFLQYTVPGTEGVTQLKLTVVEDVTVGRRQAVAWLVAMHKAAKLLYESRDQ

Molecular target: ZFYVE21-GFP (UniProt Q9BQ24)
Assay: affinity purification with mass spectrometry; GFP-Trap agarose pulldown from ZFYVE21-GFP HUVECs treated with vehicle or PRA 25% v/v; trypsin digestion, label-free MS-LC; three preparations

binding: binds
B1: Rab5B (protein, UniProt P61020 1-215)
chain: MTSRSTARPNGQPQASKICQFKLVLLGESAVGKSSLVLRFVKGQFHEYQESTIGAAFLTQSVCLDDTTVKFEIWDTAGQERYHSLAPMYYRGAQAAIVVYDITNQETFARAKTWVKELQRQASPSIVIALAGNKADLANKRMVEYEEAQAYADDNSLLFMETSAKTAMNVNDLFLAIAKKLPKSEPQNLGGAAGRSRGVDLHEQSQQNKSQCCSN
